The values below come from PMC8641947.

The chains behind the UniProt entries cited, without tags or fusion partners. Where a name states a change or a piece, a line headed by the entry shows the natural chain unless it says otherwise.
UniProt Q9NZI8: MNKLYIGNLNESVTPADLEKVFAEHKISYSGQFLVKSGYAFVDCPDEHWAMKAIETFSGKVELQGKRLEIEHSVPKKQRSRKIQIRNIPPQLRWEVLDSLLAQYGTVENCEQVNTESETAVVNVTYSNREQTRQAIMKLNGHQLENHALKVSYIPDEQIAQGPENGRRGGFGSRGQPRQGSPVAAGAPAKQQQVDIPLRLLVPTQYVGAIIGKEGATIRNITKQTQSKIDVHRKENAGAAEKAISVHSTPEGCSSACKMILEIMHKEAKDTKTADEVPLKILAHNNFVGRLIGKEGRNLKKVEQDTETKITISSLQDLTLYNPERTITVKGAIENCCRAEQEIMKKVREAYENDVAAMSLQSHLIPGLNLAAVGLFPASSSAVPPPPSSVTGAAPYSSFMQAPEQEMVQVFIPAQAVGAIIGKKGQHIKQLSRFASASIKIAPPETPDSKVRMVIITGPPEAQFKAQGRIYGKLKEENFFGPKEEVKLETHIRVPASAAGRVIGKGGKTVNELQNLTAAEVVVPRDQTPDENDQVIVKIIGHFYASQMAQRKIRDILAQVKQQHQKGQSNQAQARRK
UniProt P63208: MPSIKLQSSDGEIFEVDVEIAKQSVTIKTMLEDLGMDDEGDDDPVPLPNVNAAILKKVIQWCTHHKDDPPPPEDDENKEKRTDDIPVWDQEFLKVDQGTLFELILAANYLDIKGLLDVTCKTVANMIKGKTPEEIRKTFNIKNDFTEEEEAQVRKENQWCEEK

The target in experiment [1] is T1, Flag-FBXO45 (human F-box/SPRY domain-containing protein 1 tagged with 3xFlag) (human) (UniProt P0C2W1).
T1 sequence: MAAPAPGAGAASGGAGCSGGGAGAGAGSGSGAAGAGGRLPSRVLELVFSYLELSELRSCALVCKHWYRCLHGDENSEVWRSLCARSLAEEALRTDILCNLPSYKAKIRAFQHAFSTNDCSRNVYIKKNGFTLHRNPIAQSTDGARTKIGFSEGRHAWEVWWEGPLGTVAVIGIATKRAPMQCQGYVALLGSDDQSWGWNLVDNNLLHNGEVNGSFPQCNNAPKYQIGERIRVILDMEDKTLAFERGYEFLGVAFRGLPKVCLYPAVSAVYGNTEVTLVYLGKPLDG
The experiment can be described thus: co-IP; HepG2 and HCCLM3 cells transfected with Flag-FBXO45 or Flag-FBXO45 ΔF for 48 hr (72 hr for SKP1/cullin-1); lysis in 20 mM Tris-HCl pH 8.0, 100 mM NaCl, 1% NP-40; anti-Flag antibody or normal IgG and Protein A/G PLUS-Agarose, 4 °C; Western blot. On the technique in general: Immunoblotting shows a protein as a band on a membrane.

Experiment [2] addresses T2, Flag-FBXO45 ΔF (FBXO45 without F-box domain, amino acids 39-82 deleted, tagged with 3xFlag) (human) (UniProt P0C2W1).
T2 sequence: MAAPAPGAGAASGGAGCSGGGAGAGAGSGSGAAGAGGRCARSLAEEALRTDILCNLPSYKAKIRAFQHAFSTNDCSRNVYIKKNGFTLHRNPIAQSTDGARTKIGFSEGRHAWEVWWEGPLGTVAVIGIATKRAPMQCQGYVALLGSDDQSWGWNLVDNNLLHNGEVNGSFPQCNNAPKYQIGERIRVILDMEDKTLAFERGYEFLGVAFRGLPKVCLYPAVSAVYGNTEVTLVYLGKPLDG
The experiment is described as above.

The target of experiment [3] is Insulin-like growth factor 2 mRNA-binding protein 1 (IGF2BP1), endogenous (human (endogenous in HepG2 and HCCLM3)) (UniProt Q9NZI8). The experiment can be described thus: co-IP; HepG2 and HCCLM3 cells transfected with Flag-FBXO45 for 48 hr; lysis in 20 mM Tris-HCl pH 8.0, 100 mM NaCl, 1% NP-40; endogenous IGF2BP1 precipitated with antibody and Protein A/G PLUS-Agarose, 4 °C; Western blot for FBXO45.

No constants are given. Whether binding was seen depends on the method and setting. In cells and extracts the contact can be indirect. Some binding calls cover weakened binding; strength is not graded here. Where a sequence is shown, tags or fusion partners need not be part of it.

In the case of SKP1 (from UniProt P63208 1-163), the binding entry in experiment [1] is “binds”. Take “Insulin-like growth factor 2 mRNA-binding protein 1 (IGF2BP1), endogenous (from UniProt Q9NZI8-1 1-577)”: the binding entry in experiment [2] is “no binding”; in experiment [1], “binds”.

B1: Flag-FBXO45 (human F-box/SPRY domain-containing protein 1 tagged with 3xFlag) (protein, UniProt P0C2W1 1-286)
chain: T1 sequence
With B1, the binding result in experiment [3] is listed as “binds”.
